US20230035798A1
No constants are given. Whether binding was seen depends on the method and setting. Some entries that bind do so weakly or less than the wild type.

Chains of the proteins cited; added tags and fusions are not shown. Lines headed by an entry give the natural chain unless they say otherwise; changes in a name come on top.
UniProt O43557: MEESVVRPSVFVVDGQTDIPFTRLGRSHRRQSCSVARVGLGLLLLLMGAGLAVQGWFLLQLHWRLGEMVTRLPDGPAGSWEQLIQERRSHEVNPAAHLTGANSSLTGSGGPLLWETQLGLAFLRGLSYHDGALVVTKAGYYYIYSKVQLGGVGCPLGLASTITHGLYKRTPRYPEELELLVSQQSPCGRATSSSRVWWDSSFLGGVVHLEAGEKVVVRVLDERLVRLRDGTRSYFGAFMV

Tests used:
[1] = target: human LIGHT (TNFSF14), full length, membrane-bound (214E allele) (human) (UniProt O43557); experiment: comparison of BIAcore KD and cell-based KD
[2] = target: human LIGHT (TNFSF14), full length, membrane-bound (214E allele) (human) (UniProt O43557); experiment: flow cytometry, EL4-LIGHT cells
[3] = target: human LIGHT (TNFSF14), full length, membrane-bound (214E allele) (human) (UniProt O43557); experiment: flow cytometry, mAb binding to EL4 cells stably expressing human LIGHT [lower panel]
[4] = target: human LIGHT (TNFSF14), full length, membrane-bound (214E allele) (human) (UniProt O43557); experiment: flow cytometry competition: graded mAb against biotinylated HVEM-Fc binding to HEK293FF cells transiently expressing human LIGHT
[5] = target: human LIGHT (TNFSF14), full length, membrane-bound (214E allele) (human) (UniProt O43557); experiment: flow cytometry competition: graded mAb against biotinylated LTβR-Fc binding to HEK293FF cells transiently expressing human LIGHT
[6] = target: human LIGHT (TNFSF14), full length, membrane-bound (214E allele) (human) (UniProt O43557); experiment: flow cytometry, mAb binding to EL4 cells stably expressing human LIGHT [upper panel]

Measured: binding

B1: 3D12 (antibody, human IgG4, V domains shown)
VH: QVQLQQPGAELVRPGASVTLSCKASDYTFTDSEIHWVKQTPVHGLEWIGEIDPETGGTAYNQKFKGKATLTADKSSSTAYMELRSLTSEDSAVYYCSRETDYFFDYWGQGTTLTVSS
VL: DIQMTQSPASLSASVGETVTITCGASENIYGALNWYQRKQGKSPQLLIYGATNLADGMSSRFSGSGSGRQYSLKISSLHPDDVATYYCQNVLSTPWTFGGGTKLEIKR
binds: [1] | [2] | [3] | [4] | [5]

B2: 2B11 (antibody, human IgG4, V domains shown)
VH: EVQLVESGAELVRPGVSVKISCKGSGYTFTDYAIHWVKQSHAKSLEWIGVISTYYGDASYNQKFKGKATMTVDKSSSTAYMELARLTSEDSAIYYCARSRGEYGNYDAMDYWGQGTSVTVSS
VL: DIVLTQSPASLAVSLGQRATISCRASESVDSYGNSFMHWYQQKPGQPPKLLIYRASNLESGIPARFSGSGSRTDFTLTINPVEADDVATYYCQQSNEDPYTFGGGTKLEIK
binds: [2] | [4] | [5]

B3: 3A07 (antibody, human IgG4, V domains shown)
VH: QVQLQQSGAELVRPGAPVTLSCKASDYTFTDSEIHWVKQTPVHGLEWIGEIDPETGGTAYNQKFKGKATLTADKSSSTAYMELRSLTSEDSAVYYCSRETDYFFDYWGQGTTLTVSS
VL: ENVLTQSPAIMSASPGEKVTMTCSASSSVSYMYWYQQRPGSSPRLLIYDTSNLASGVPVRFSGSGSGTSYSLTISRMEAEDAATYYCQQWSSYPLTFGSGTKLEIK
binds: [2] | [4] | [5]

B4: 3C10 (antibody, human IgG4, V domains shown)
VH: EVQLQQSGAELVRPGASVTLSCKASDYTFTDSEIHWVKQTPVHGLEWIGEIDPETGGTAYNQKFKGKATLTADKSSSTAYMELRSLTSEDSAVYYCSRETDYFFDYWGQGTTLTVSS
VL: DVVMTQTPAIMSASPGEKVTMTCSASSSVSYMYWYQQKPGSSPRLLIYDTSNLASGVPVRFSGSGSGTSYSLTISRMEAEDAATYYCQQWSSYPLTFGAGTKLELK
binds: [2] | [4] | [5]

B5: 3B04 (antibody, human IgG4, V domains shown)
VH: QVQLQQPGAELVRPGASVTLSCKASGYTFTDYEMHWVKQTPVHGLEWIGEIDPETGDTAYSQKFKGKATLTADKSSSTAYMEFRSLTSEDSAVYYCSRETDYFFDYWGQGTTLTVSS
VL: DIQMTQTPASLSASVGETVTITCGASENIYGALNWYQRKQGKSPQLLIYGATNLADGMSSRFSGSGSGRQYSLKISSLHPDDFATYYCQNVLTTPWTFGGGTKLEIKR
binds: [1] | [2] | [3] | [4] | [5] | [6]
